# Source: the supplement of paper PMC9135407
# Where “and” joins values, the source holds several entries; their conditions need not be identical. Equal values may be shown once. Where a name gives a salt, the structure may show the parent alone. ± gives the standard deviation of the averaged measurements. Some of the results follow. Baselines shift from plate to plate; read single values as rough.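 Culture-activated primary human stellate myofibroblasts, where regained lipid droplets signal inactivation. Value: share of Hoechst-counted cells above a per-plate Bodipy cutoff, in duplicate wells, with DMSO negative and nortriptyline positive controls on each plate. Hits: a control-normalized score above the plate's top-tenth-percentile nortriptyline wells, or one of a plate's three best wells. Final well concentrations are not given.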
# Tested on: primary human hepatic stellate cells (donor 1)
# Experiment: percent Bodipy-positive cells; higher = more lipid droplet accumulation
# Conditions: 48 h
# Protocol: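 Primary lipid accumulation screen in primary human hepatic stellate cell myofibroblasts (donor 1, passage 8) in 384-well plates. 100 nL of library compound was pin-transferred into 30 µL medium in duplicate, and cells were treated for 48 h. The 'Scaled' score combines distance from plate baseline, toxicity and reproducibility penalties, and is normalised to nortriptyline (positive) and DMSO (negative) controls on each plate. A hit is defined as scaled >0.85 or among the top 3 wells per plate.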
# [1] = library stock concentration: 10 mM
# [2] = library stock concentration: 3.33 mM
# [3] = library stock concentration: 1 mM
structure (smiles),measurement,setting,value
CN1C(C)(C)CCCC1(C)C [Pempidine tartrate],percent Bodipy-positive cells,,9.49 ± 0.86%
same,percent Bodipy-positive cells,[1],52.8 ± 15%
O=c1[nH]ccc2c(S(=O)(=O)N3CCCNCC3)cccc12 [HA 1100 hydrochloride],percent Bodipy-positive cells,[1],7.25 ± 1.7%
Cc1cc(NC(=O)Nc2ccc(N(C)C)cc2)c2cc(F)cc(F)c2n1,percent Bodipy-positive cells,[2],9.63 ± 0.1%
same,percent Bodipy-positive cells,[1],14.6% and 8.84%
Cc1onc(-c2c(Cl)cccc2Cl)c1C(=O)N[C@@H]1C(=O)N2[C@@H]1SC(C)(C)[C@@H]2C(=O)O,percent Bodipy-positive cells,[1],28.3 ± 0.5%
Cc1onc(-c2c(Cl)cccc2Cl)c1C(=O)N[C@@H]1C(=O)N2[C@@H]1SC(C)(C)[C@@H]2C(=O)O [Dicloxacillin sodium salt],percent Bodipy-positive cells,,35.9 ± 19%
Cc1onc(-c2c(Cl)cccc2Cl)c1C(=O)N[C@@H]1C(=O)N2[C@@H]1SC(C)(C)[C@@H]2C(=O)O [Dicloxacillin Sodium],percent Bodipy-positive cells,[2],7.53 ± 0.19%
same,percent Bodipy-positive cells,[1],18.9 ± 3.9%
Cc1onc(-c2c(Cl)cccc2Cl)c1C(=O)N[C@@H]1C(=O)N2[C@@H]1SC(C)(C)[C@@H]2C(=O)O [Dicloxacillin sodium],percent Bodipy-positive cells,[1],9.4 ± 0.17%
CC1(C)Oc2ccc(C#N)cc2[C@@H](N2CCCC2=O)[C@@H]1O [Levcromakalim],percent Bodipy-positive cells,[1],7.44 ± 0.96%
CN(C)CCCN1c2ccccc2CCc2ccccc21.Cl [Imipramine hydrochloride],percent Bodipy-positive cells,[1],96.4 ± 2.6%
O=c1cc(N2CCOCC2)oc2c(-c3cccc4c3sc3ccccc34)cccc12,percent Bodipy-positive cells,library stock concentration: 80 uM,7.59 ± 0.37%
same,percent Bodipy-positive cells,library stock concentration: 400 uM,15.2 ± 2.5%
same,percent Bodipy-positive cells,library stock concentration: 2 mM,9.13 ± 3.3%
same,percent Bodipy-positive cells,[2],18 ± 12%
same,percent Bodipy-positive cells,[1],13.7% and 8.03%
CC(C)(C(=O)O)c1ccc(C(O)CCCN2CCC(C(O)(c3ccccc3)c3ccccc3)CC2)cc1 (stereo not drawn) [Fexofenadine HCl],percent Bodipy-positive cells,,12.7 ± 6.5%
same,percent Bodipy-positive cells,[2],9.85 ± 0.43%
same,percent Bodipy-positive cells,[1],22.2 ± 1.8%
CC(C)(C(=O)O)c1ccc(C(O)CCCN2CCC(C(O)(c3ccccc3)c3ccccc3)CC2)cc1 (stereo not drawn),percent Bodipy-positive cells,[1],27.8 ± 4%
CC(C)(C(=O)O)c1ccc(C(O)CCCN2CCC(C(O)(c3ccccc3)c3ccccc3)CC2)cc1 (stereo not drawn) [Fexofenadine hydrochloride],percent Bodipy-positive cells,[1],31.7% and 10.7%
CC(N)=NCCCC[C@H](N)C(=O)O [L-N6-(1-Iminoethyl)lysine hydrochloride],percent Bodipy-positive cells,[1],39.9 ± 12%
COc1ccc([C@@H]2CC(=O)c3c(O)cc(O[C@@H]4O[C@H](CO[C@@H]5O[C@@H](C)[C@H](O)[C@@H](O)[C@H]5O)[C@@H](O)[C@H](O)[C@H]4O)cc3O2)cc1O [Hesperidin],percent Bodipy-positive cells,,25.9 ± 2.7%
same,percent Bodipy-positive cells,[2],13 ± 3.4%
same,percent Bodipy-positive cells,[1],16.4 ± 2.7%
CCCCCCCCCCCCCCCCOC[C@H](COP(=O)([O-])OCC[N+](C)(C)C)SC(C)=O [2-thio-PAF],percent Bodipy-positive cells,[3],8.58 ± 0.2%
C[N+]1(C)C[C@H](O)C[C@H]1C(=O)[O-] [Betonicine],percent Bodipy-positive cells,,8.89 ± 3.8%
CC(=O)O[C@]1(C(C)=O)CC[C@H]2[C@@H]3C[C@H](C)C4=CC(=O)C=C[C@]4(C)[C@@]3(F)[C@@H](O)C[C@@]21C [Fluorometholone Acetate],percent Bodipy-positive cells,[2],7.61 ± 1.6%
same,percent Bodipy-positive cells,[1],25.9 ± 10%
"O=C(O)COc1ccc(OCCNC[C@H](O)COc2ccccc2)cc1 [ICI 215,001 hydrochloride]",percent Bodipy-positive cells,[1],8.57 ± 0.16%
Cc1ccc(-c2csc(NC(=O)c3ccccc3)n2)c(C)c1,percent Bodipy-positive cells,[2],36.5 ± 2.5%
same,percent Bodipy-positive cells,[1],52.8 ± 22%
CN(C)CCCN1c2ccccc2Sc2ccccc21 [Promazine hydrochloride],percent Bodipy-positive cells,,40.1 ± 2%
same,percent Bodipy-positive cells,library stock concentration: 6.2 mM,84 ± 1.5%
same,percent Bodipy-positive cells,[1],51.35 ± 0.37%
NC(Cc1ccc(Cl)cc1)C(=O)O (stereo not drawn) [(?)-p-Chlorophenylalanine],percent Bodipy-positive cells,[1],48.6 ± 14%
Cc1cc(C(C)(C)C)c(O)c(C)c1CC1=NCCN1 [Oxymetazoline hydrochloride],percent Bodipy-positive cells,,40.8 ± 6.2%
same,percent Bodipy-positive cells,library stock concentration: 6.7 mM,13.1 ± 0.49%
Cc1cc(C(C)(C)C)c(O)c(C)c1CC1=NCCN1 [Oxymetazoline HCl],percent Bodipy-positive cells,[2],13.2 ± 5.1%
same,percent Bodipy-positive cells,library stock concentration: 7.7 mM,20 ± 3.7%
same,percent Bodipy-positive cells,[1],25.1 ± 5.8%
NS(=O)(=O)c1cc(C(=O)O)cc(N2CCCC2)c1Oc1ccccc1 [Piretanide],percent Bodipy-positive cells,,9.1 ± 0.49%
COc1ccc(/C=C/c2nc(NCCCN(C)C)c3ccccc3n2)cc1,percent Bodipy-positive cells,[1],100%
C[N+]1(C)[C@@H]2C[C@@H](OC(=O)C(O)(c3cccs3)c3cccs3)C[C@H]1[C@@H]1O[C@@H]12 [Tiotropium Bromide hydrate],percent Bodipy-positive cells,[2],9.33 ± 1.9%
same,percent Bodipy-positive cells,[1],12.1 ± 2.2%
CC(C)(C)C(=O)Oc1ccc(S(=O)(=O)Nc2ccccc2C(=O)NCC(=O)O)cc1 [Sivelestat sodium salt hydrate],percent Bodipy-positive cells,[1],33.8 ± 4.6%
CSc1ccc2c(c1)C(N1CCN(C)CC1)Cc1ccccc1S2 (stereo not drawn) [Methiothepin mesylate],percent Bodipy-positive cells,[1],96.45 ± 0.94%
CSc1ccc2c(c1)C(N1CCN(C)CC1)Cc1ccccc1S2 (stereo not drawn) [Methiothepin maleate],percent Bodipy-positive cells,,83.2 ± 4.7%
C[C@H]1COc2c(C3(N)CC3)c(F)cc3c(=O)c(C(=O)O)cn1c23 [Pazufloxacin],percent Bodipy-positive cells,library stock concentration: 6.3 mM,9.56 ± 2.9%
CC(C(=O)O)c1ccc2c(c1)Cc1cccnc1O2 (stereo not drawn) [Pranoprofen],percent Bodipy-positive cells,[2],13.1 ± 1.3%
same,percent Bodipy-positive cells,library stock concentration: 7.8 mM,5.71 ± 1.9%
same,percent Bodipy-positive cells,[1],31.9 ± 31%
CN(C)C/C=C(/c1ccc(Br)cc1)c1cccnc1.Cl.Cl [Zimelidine dihydrochloride],percent Bodipy-positive cells,[1],55.4 ± 6.9%
COC(=O)C[C@H](NC(=O)[C@H](C)NC(=O)[C@@H](NC(=O)OCc1ccccc1)C(C)C)C(=O)CF,percent Bodipy-positive cells,library stock concentration: 10.7 mM,21.1 ± 2.3%
Cc1cc(Nc2nc(-c3ccccc3)nc3ccccc23)n[nH]1 [GSK-3 Inhibitor XIII],percent Bodipy-positive cells,[2],38.9 ± 14%
COC(=O)[C@H]1[C@H]2C[C@H]3c4[nH]c5ccccc5c4CCN3C[C@@H]2CC[C@@H]1O [Corynanthine hydrochloride],percent Bodipy-positive cells,,27.1 ± 2.4%
Cl.Cl.c1ccc2c(NCCCCCCCNc3c4c(nc5ccccc35)CCCC4)c3c(nc2c1)CCCC3 [bis(7)-Tacrine],percent Bodipy-positive cells,[3],98.79 ± 0.16%

# No new results follow: an excerpt of the list.
structure (smiles),measurement,setting,value
CN(C)CCCN1c2ccccc2Sc2ccccc21 [Promazine hydrochloride],percent Bodipy-positive cells,library stock concentration: 6.2 mM,84 ± 1.5%
same,percent Bodipy-positive cells,[1],51.35 ± 0.37%
NC(Cc1ccc(Cl)cc1)C(=O)O (stereo not drawn) [(?)-p-Chlorophenylalanine],percent Bodipy-positive cells,[1],48.6 ± 14%
Cc1cc(C(C)(C)C)c(O)c(C)c1CC1=NCCN1 [Oxymetazoline hydrochloride],percent Bodipy-positive cells,,40.8 ± 6.2%
same,percent Bodipy-positive cells,library stock concentration: 6.7 mM,13.1 ± 0.49%
